The list shows a part of the results.
Experiments:
Assay in all cases: log2 fold change, soluble protein after heating vs DMSO (PISA); higher = thermal stabilisation; K562 cells, 10 uM, 30 min; active = over 0.2 and 3.5 SD of the protein, either way, in both replicates (recomputed)
[1] = compound: CC1=C(C=C(C=C1)NC(=O)C2=CC(=CC=C2)C(C)(C)C#N)NC3=CC4=C(C=C3)N=CN(C4=O)C
Procedure, shortened: (§1)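 Thermal stability values are relative to control samples and come from duplicates. They are expressed as log2 fold changes. For measurement, K562 cells (2×10^6 cells/mL) received 10 μM compound for 30 min, and aliquots were heated for 3 min over 48°C-58°C, pooled, and extracted at 4°C in PBS with 0.5% NP-40. Soluble protein, the supernatant after 21,000xg for 90 min, was quantified by TMTpro 16plex LC-MS/MS with equalised channel sums.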

Chains of the proteins cited; added tags and fusions are not shown. Lines headed by an entry give the natural chain unless they say otherwise; changes in a name come on top.
UniProt O00124: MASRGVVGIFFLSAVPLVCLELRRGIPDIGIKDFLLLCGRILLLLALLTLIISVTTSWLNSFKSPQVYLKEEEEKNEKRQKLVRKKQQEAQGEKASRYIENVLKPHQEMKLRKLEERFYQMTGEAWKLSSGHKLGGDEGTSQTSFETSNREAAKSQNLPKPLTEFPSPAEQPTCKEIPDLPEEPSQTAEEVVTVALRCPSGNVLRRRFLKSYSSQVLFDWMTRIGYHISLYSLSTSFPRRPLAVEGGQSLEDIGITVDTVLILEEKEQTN
UniProt Q9NVA1: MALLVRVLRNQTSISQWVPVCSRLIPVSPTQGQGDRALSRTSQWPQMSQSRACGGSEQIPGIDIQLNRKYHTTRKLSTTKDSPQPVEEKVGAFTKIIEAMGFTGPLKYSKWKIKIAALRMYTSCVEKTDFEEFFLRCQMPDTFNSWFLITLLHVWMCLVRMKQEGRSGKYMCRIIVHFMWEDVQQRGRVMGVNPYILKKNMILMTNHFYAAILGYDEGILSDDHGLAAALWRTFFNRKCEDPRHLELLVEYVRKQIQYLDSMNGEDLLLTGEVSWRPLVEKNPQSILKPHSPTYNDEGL
UniProt O14562: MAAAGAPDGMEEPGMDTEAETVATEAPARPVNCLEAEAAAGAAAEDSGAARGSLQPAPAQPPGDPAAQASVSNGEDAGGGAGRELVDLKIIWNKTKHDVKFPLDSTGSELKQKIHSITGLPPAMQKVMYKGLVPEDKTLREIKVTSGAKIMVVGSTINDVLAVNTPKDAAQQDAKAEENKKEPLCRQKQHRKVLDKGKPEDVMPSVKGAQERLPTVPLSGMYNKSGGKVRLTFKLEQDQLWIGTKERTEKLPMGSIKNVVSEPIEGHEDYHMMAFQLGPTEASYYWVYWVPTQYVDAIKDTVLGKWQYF
UniProt Q9BZM5, whole entry, looked up: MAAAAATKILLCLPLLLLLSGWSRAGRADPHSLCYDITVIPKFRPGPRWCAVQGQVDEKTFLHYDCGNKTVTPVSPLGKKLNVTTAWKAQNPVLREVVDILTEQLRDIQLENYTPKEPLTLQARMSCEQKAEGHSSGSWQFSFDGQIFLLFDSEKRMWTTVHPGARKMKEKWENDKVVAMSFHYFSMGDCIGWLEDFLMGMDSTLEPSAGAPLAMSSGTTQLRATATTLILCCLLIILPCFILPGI
UniProt Q9Y5Z9: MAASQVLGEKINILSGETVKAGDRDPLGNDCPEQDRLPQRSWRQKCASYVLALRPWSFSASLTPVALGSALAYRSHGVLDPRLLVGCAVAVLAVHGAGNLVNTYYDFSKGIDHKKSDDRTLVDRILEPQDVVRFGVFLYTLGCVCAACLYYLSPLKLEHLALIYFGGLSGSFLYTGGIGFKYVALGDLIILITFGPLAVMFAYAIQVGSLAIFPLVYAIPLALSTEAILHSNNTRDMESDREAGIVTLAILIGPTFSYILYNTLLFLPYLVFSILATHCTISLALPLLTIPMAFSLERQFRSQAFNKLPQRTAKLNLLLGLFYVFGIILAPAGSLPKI
UniProt Q70CQ3: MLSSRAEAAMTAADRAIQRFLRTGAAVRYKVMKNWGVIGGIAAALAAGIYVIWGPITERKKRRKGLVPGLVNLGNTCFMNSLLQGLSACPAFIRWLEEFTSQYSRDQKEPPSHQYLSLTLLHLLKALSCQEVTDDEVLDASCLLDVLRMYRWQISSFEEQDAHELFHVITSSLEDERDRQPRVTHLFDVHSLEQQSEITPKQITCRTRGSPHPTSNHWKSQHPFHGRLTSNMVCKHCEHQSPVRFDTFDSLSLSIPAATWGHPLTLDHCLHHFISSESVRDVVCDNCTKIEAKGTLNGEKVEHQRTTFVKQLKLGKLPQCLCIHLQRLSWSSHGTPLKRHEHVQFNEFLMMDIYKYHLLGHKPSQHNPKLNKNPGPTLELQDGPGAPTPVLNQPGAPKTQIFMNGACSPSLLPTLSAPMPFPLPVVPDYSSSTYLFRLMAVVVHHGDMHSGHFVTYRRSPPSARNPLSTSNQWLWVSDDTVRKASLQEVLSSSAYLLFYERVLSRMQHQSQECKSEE
UniProt Q08AM6: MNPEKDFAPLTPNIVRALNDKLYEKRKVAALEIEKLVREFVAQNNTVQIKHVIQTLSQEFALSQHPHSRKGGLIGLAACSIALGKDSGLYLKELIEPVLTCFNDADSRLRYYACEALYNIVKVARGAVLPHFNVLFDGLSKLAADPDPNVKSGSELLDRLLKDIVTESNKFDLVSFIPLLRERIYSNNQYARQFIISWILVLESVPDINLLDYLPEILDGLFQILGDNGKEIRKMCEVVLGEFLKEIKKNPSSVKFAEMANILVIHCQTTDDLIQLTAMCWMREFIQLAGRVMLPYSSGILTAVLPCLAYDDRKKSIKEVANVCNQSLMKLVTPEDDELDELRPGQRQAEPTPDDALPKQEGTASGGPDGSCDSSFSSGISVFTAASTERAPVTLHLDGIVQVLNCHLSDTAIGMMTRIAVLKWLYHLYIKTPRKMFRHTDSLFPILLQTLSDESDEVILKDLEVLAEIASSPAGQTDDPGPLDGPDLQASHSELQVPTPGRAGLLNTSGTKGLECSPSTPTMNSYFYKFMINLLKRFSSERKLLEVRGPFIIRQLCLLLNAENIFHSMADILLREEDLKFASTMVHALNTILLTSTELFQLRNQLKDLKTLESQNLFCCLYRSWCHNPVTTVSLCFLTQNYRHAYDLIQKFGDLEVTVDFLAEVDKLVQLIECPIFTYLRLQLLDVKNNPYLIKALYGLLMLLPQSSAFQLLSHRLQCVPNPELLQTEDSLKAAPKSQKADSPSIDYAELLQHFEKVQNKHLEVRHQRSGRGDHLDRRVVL
UniProt Q14139: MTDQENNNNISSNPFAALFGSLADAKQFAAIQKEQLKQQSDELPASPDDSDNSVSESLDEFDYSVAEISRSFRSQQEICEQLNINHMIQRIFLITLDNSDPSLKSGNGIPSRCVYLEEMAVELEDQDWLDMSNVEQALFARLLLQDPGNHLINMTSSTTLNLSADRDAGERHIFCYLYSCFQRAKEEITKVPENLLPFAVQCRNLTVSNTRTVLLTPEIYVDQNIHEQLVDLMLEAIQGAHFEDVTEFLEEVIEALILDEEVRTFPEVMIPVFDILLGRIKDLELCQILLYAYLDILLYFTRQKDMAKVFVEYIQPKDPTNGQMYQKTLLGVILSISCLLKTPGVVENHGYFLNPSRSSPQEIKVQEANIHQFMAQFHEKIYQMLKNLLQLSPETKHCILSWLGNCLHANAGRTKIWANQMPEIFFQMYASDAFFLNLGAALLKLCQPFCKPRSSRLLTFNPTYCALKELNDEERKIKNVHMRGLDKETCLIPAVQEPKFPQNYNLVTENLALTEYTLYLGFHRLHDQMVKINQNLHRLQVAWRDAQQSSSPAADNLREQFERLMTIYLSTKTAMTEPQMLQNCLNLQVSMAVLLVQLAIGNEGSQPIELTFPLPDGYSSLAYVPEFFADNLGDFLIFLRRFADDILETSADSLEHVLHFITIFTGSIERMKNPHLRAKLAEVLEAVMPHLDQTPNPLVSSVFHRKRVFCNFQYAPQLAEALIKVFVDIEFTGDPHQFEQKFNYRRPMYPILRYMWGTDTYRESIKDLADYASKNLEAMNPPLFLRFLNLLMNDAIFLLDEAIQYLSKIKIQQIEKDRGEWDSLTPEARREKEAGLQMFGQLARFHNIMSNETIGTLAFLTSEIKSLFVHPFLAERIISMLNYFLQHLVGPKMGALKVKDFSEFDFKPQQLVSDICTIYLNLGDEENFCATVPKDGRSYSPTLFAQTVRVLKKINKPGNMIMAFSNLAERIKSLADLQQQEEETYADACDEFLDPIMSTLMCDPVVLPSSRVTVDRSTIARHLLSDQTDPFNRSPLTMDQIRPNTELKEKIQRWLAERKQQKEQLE
UniProt P45974: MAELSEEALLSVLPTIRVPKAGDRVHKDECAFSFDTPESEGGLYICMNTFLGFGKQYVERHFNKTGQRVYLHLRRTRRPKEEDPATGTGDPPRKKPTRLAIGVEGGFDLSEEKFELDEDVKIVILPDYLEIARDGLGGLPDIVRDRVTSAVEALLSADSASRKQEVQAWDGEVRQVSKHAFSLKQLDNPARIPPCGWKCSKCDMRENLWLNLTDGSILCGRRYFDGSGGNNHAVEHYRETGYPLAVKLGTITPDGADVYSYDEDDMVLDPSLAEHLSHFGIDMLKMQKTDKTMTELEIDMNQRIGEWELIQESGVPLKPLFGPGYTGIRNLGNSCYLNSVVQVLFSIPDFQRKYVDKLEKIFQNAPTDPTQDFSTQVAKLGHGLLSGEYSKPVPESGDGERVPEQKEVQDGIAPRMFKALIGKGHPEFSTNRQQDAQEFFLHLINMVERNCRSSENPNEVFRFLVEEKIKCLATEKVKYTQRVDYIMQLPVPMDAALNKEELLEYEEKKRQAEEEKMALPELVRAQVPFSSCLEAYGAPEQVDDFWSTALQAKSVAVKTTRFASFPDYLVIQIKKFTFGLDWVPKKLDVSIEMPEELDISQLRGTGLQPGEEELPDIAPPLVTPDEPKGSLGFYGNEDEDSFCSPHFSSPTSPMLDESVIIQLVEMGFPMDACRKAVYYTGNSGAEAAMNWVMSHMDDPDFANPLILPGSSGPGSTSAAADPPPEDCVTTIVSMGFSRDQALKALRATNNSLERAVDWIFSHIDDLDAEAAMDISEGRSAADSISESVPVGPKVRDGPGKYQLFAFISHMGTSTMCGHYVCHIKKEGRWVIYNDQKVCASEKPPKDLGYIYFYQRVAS
UniProt Q86UV5: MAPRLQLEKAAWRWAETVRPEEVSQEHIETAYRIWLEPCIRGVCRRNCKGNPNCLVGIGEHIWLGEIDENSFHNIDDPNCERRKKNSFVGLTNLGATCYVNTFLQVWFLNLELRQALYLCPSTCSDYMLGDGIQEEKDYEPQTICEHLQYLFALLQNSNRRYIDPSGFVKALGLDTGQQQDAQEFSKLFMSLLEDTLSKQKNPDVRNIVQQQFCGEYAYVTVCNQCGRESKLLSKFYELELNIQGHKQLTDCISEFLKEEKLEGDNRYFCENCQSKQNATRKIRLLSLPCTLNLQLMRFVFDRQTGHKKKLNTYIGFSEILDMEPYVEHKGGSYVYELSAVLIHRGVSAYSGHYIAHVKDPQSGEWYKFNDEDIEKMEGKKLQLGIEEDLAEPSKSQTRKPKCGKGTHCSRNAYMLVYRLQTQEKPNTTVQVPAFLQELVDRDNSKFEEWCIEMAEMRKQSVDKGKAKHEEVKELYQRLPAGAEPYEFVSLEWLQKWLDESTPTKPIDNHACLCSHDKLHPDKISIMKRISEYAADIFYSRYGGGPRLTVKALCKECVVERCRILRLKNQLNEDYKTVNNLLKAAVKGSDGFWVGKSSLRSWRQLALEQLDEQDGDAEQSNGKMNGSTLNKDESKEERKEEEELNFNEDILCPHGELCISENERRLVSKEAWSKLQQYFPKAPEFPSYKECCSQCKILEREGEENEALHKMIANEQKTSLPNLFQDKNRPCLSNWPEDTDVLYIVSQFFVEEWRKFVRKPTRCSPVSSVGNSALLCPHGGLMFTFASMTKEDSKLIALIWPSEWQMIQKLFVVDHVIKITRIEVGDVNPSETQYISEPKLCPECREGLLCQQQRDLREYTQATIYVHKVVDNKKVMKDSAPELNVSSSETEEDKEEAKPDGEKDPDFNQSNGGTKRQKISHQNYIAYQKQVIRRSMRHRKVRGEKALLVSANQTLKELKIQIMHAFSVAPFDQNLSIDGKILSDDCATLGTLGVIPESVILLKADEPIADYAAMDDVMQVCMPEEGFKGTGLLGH
UniProt Q9BZL1: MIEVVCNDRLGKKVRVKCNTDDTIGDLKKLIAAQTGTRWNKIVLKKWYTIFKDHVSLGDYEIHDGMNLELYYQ
UniProt Q9NRR5, whole entry, looked up: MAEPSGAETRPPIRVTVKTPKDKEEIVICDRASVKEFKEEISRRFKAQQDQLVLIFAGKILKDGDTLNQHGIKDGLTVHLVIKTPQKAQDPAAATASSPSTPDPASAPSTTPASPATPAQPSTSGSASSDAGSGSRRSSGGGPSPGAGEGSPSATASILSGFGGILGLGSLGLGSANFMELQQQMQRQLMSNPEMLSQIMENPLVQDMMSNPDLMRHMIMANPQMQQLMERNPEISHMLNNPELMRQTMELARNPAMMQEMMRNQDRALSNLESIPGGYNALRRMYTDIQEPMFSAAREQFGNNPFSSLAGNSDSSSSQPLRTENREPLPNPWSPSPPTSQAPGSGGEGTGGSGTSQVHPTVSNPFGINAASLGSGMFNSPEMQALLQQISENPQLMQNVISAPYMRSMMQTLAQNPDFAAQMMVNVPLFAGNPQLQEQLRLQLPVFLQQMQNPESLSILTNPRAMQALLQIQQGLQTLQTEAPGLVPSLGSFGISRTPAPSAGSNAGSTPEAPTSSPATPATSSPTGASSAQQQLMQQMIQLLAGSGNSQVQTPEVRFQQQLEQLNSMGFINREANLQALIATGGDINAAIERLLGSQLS

[2] = compound: CC1=C(C=C(C=C1)NC(=O)C2=CC(=CC=C2)N(C)C)NC(=O)C3=CC=C(C=C3)O
Procedure, shortened: as §1

[3] = compound: CC1=CC=C(C=C1)SC2=C3C=C(SC3=CN=C2)C(=O)N
Procedure, shortened: as §1

[4] = compound: CC1=NC(=CC=C1)C2=C(N=C(N2)C(C)(C)C)C3=CC4=NC=CN=C4C=C3
Procedure, shortened: as §1

Nexturastat A = compound: CCCCN(Cc1ccc(C(=O)NO)cc1)C(=O)Nc1ccccc1 [Nexturastat A]
Procedure, shortened: as §1

vemurafenib = compound: CCCS(=O)(=O)Nc1ccc(F)c(C(=O)c2c[nH]c3ncc(-c4ccc(Cl)cc4)cc23)c1F [vemurafenib]
Procedure, shortened: as §1

[5] = compound: CCCS(=O)(=O)Nc1ccc(F)c(C(=O)c2c[nH]c3ncc(Cl)cc23)c1F
Procedure, shortened: as §1

[6] = compound: CCCc1cc(C)[nH]c(=O)c1CNC(=O)c1cc(-c2ccnc(N3CCN(C)CC3)c2)cc2c1cnn2C(C)C
Procedure, shortened: as §1

givinostat = compound: CCN(CC)Cc1ccc2cc(COC(=O)Nc3ccc(C(=O)NO)cc3)ccc2c1 [givinostat]
Procedure, shortened: as §1

barasertib = compound: CCN(CCCOc1ccc2c(Nc3cc(CC(=O)Nc4cccc(F)c4)[nH]n3)ncnc2c1)CCOP(=O)(O)O [barasertib]
Procedure, shortened: as §1

Target | log2 fold change [1] | log2 fold change [2] | log2 fold change [3] | log2 fold change [4] | log2 fold change (Nexturastat A) | log2 fold change (vemurafenib) | log2 fold change [5] | log2 fold change [6] | log2 fold change (givinostat) | log2 fold change (barasertib)
UBQLN2 (UniProt Q9UHD9) | inactive: 0.007 | inactive: -0.003 | inactive: 0.023 | inactive: -0.005 | inactive: 0.038 | inactive: 0.094 | inactive: 0.038 | inactive: -0.085 | inactive: -0.004 | inactive: -0.008
UBXN8 (UniProt O00124) | inactive: -0.029 | inactive: 0.169 | inactive: 0.023 | – | inactive: 0.334 | inactive: 0.089 | inactive: -0.024 | – | – | inactive: -0.218
UQCC1 (UniProt Q9NVA1) | inactive: -0.001 | inactive: 0.028 | inactive: -0.012 | inactive: 0.039 | inactive: 0.123 | inactive: -0.009 | inactive: 0.025 | inactive: -0.046 | inactive: -0.025 | inactive: 0
USP34 (UniProt Q70CQ2) | inactive: -0.02 | inactive: -0.094 | inactive: 0.077 | inactive: 0 | inactive: -0.12 | inactive: 0.08 | inactive: 0.032 | inactive: 0.052 | inactive: 0.094 | inactive: 0.069
USP32 (UniProt Q8NFA0) | inactive: -0.116 | inactive: -0.082 | inactive: 0.07 | inactive: 0.033 | inactive: -0.07 | – | inactive: 0.007 | – | inactive: 0.434 | –
USP11 (UniProt P51784) | inactive: -0.141 | inactive: 0.084 | inactive: 0.048 | – | inactive: 0.22 | – | inactive: 0.115 | inactive: 0.189 | – | –
UCHL3 (UniProt P15374) | inactive: -0.003 | inactive: -0.016 | inactive: 0.076 | inactive: -0.008 | inactive: -0.057 | inactive: 0.042 | inactive: 0.022 | inactive: -0.024 | inactive: -0.038 | inactive: 0.028
UIMC1 (UniProt Q96RL1) | inactive: -0.08 | inactive: -0.04 | inactive: -0.033 | inactive: -0.106 | inactive: 0.312 | inactive: -0.036 | inactive: -0.076 | inactive: -0.11 | inactive: -0.03 | inactive: -0.12
ULBP1 (UniProt Q9BZM6) | inactive: -0.088 | inactive: 0.023 | inactive: -0.014 | – | active: 0.428 | inactive: 0.051 | inactive: 0.053 | inactive: 0 | inactive: 0.028 | –
UBP1 (UniProt Q9NZI7) | inactive: 0.003 | inactive: -0.061 | – | inactive: -0.142 | inactive: 0.347 | inactive: 0.091 | – | inactive: -0.242 | – | inactive: -0.014
UNC119B (UniProt A6NIH7) | inactive: 0.293 | inactive: -0.057 | inactive: 0.241 | inactive: -0.017 | – | inactive: 0.023 | inactive: -0.047 | inactive: -0.108 | inactive: 0.12 | inactive: -0.029
UBFD1 (UniProt O14562) | inactive: -0.02 | inactive: -0.025 | inactive: 0.087 | inactive: 0.023 | inactive: 0 | inactive: 0.022 | inactive: 0.004 | inactive: -0.039 | inactive: -0.001 | inactive: 0.011
ULBP2 (UniProt Q9BZM5) | inactive: -0.085 | inactive: 0.014 | inactive: -0.131 | – | inactive: -0.296 | – | inactive: -0.394 | inactive: -0.031 | – | –
UFL1 (UniProt O94874) | inactive: -0.009 | inactive: -0.089 | inactive: 0.011 | inactive: 0.048 | inactive: 0.091 | inactive: 0.083 | inactive: 0.089 | inactive: 0.043 | inactive: 0.08 | inactive: 0.031
UHRF1BP1L (UniProt A0JNW5) | inactive: -0.079 | inactive: -0.031 | inactive: -0.038 | inactive: -0.032 | inactive: -0.054 | inactive: -0.039 | inactive: -0.033 | inactive: 0.027 | inactive: -0.033 | inactive: 0
USP6NL isoform 2 (UniProt Q92738) | inactive: 0.003 | inactive: -0.056 | inactive: -0.159 | inactive: -0.175 | inactive: 0.022 | inactive: 0.105 | inactive: 0.026 | – | inactive: 0.104 | –

Target | log2 fold change [1] | log2 fold change [2] | log2 fold change [3] | log2 fold change [4] | log2 fold change (Nexturastat A) | log2 fold change (vemurafenib) | log2 fold change [5] | log2 fold change [6] | log2 fold change (givinostat) | log2 fold change (barasertib)
USP39 (UniProt Q53GS9) | inactive: -0.038 | inactive: 0.017 | inactive: -0.038 | inactive: -0.008 | inactive: 0.114 | inactive: 0.013 | inactive: 0.001 | inactive: 0.066 | inactive: 0.005 | inactive: -0.01
UMPS (UniProt P11172) | inactive: -0.005 | inactive: 0.004 | inactive: 0.049 | inactive: 0.025 | inactive: -0.119 | inactive: 0.012 | inactive: 0.026 | inactive: -0.012 | inactive: -0.014 | inactive: 0.01
UBIAD1 (UniProt Q9Y5Z9) | inactive: -0.03 | inactive: 0.059 | inactive: 0.004 | inactive: 0.015 | – | inactive: 0.07 | inactive: 0.093 | inactive: 0.023 | inactive: 0.043 | inactive: 0.023
USP30 (UniProt Q70CQ3) | inactive: 0.217 | inactive: -0.074 | inactive: 0 | inactive: 0.032 | inactive: -0.144 | inactive: 0.272 | inactive: -0.072 | inactive: -0.007 | inactive: -0.043 | inactive: -0.202
USP20 (UniProt Q9Y2K6) | inactive: -0.005 | inactive: -0.137 | inactive: 0.014 | inactive: -0.009 | inactive: 0.209 | inactive: -0.034 | inactive: 0.034 | inactive: 0.068 | inactive: 0.03 | inactive: 0.004
VAC14 (UniProt Q08AM6) | inactive: 0.026 | inactive: 0.016 | inactive: -0.003 | inactive: 0.048 | inactive: -0.039 | inactive: -0.006 | inactive: 0.021 | inactive: -0.042 | inactive: -0.016 | inactive: 0.014
UBE4A isoform 2 (UniProt Q14139) | inactive: -0.064 | inactive: -0.058 | inactive: -0.029 | inactive: 0.01 | inactive: 0.061 | inactive: 0.048 | inactive: 0.097 | inactive: 0.021 | inactive: 0.073 | inactive: 0.065
USP5 (UniProt P45974) | inactive: 0.01 | inactive: -0.019 | inactive: -0.02 | inactive: 0.022 | inactive: -0.02 | inactive: 0.013 | inactive: -0.069 | inactive: -0.065 | inactive: -0.003 | inactive: 0.031
VARS (UniProt P26640) | inactive: 0.037 | inactive: -0.045 | inactive: -0.018 | inactive: 0.004 | inactive: 0.021 | inactive: 0.014 | inactive: 0.056 | inactive: 0.03 | inactive: 0.012 | inactive: 0.006
USP48 isoform 8 (UniProt Q86UV5) | inactive: 0.128 | inactive: -0.094 | inactive: -0.054 | inactive: 0.119 | inactive: -0.006 | inactive: 0.162 | inactive: 0.142 | inactive: 0.103 | inactive: 0.144 | inactive: 0.14
UBL5 (UniProt Q9BZL1) | inactive: -0.072 | inactive: 0.017 | inactive: -0.005 | inactive: -0.042 | inactive: -0.027 | inactive: 0.052 | inactive: 0.006 | inactive: -0.015 | inactive: -0.043 | inactive: 0.003
UROD (UniProt P06132) | inactive: -0.045 | inactive: 0.022 | inactive: 0.013 | inactive: 0.029 | inactive: -0.069 | inactive: 0.001 | inactive: 0.044 | inactive: 0.027 | inactive: -0.027 | inactive: 0.001
UBQLN4 (UniProt Q9NRR5) | inactive: -0.02 | inactive: -0.012 | inactive: 0.012 | inactive: 0.03 | inactive: -0.072 | inactive: 0.023 | inactive: 0.004 | inactive: -0.035 | inactive: -0.016 | inactive: -0.002
USP33 (UniProt Q8TEY7) | inactive: 0.124 | inactive: -0.089 | – | – | – | inactive: 0.029 | – | – | inactive: 0.263 | –
USP48 (UniProt Q86UV5) | inactive: -0.096 | – | – | – | – | – | – | inactive: -0.232 | inactive: 0.237 | inactive: 0.252

Single records, as listed above. Order of values: log2 fold change [1] | log2 fold change [2] | log2 fold change [3] | log2 fold change [4] | log2 fold change (Nexturastat A) | log2 fold change (vemurafenib) | log2 fold change [5] | log2 fold change [6] | log2 fold change (givinostat) | log2 fold change (barasertib)
VAC14 (UniProt Q08AM6) reads inactive: 0.026 | inactive: 0.016 | inactive: -0.003 | inactive: 0.048 | inactive: -0.039 | inactive: -0.006 | inactive: 0.021 | inactive: -0.042 | inactive: -0.016 | inactive: 0.014
USP48 isoform 8 (UniProt Q86UV5) reads inactive: 0.128 | inactive: -0.094 | inactive: -0.054 | inactive: 0.119 | inactive: -0.006 | inactive: 0.162 | inactive: 0.142 | inactive: 0.103 | inactive: 0.144 | inactive: 0.14

From the supplement of paper PMC10849652
